The values below come from the supplement of paper PMC10849652.

Sequences of proteins named here, by UniProt entry; tags and fusion partners are left off. A change or cut given only in a name is not applied to a line headed by its entry.
UniProt Q92995: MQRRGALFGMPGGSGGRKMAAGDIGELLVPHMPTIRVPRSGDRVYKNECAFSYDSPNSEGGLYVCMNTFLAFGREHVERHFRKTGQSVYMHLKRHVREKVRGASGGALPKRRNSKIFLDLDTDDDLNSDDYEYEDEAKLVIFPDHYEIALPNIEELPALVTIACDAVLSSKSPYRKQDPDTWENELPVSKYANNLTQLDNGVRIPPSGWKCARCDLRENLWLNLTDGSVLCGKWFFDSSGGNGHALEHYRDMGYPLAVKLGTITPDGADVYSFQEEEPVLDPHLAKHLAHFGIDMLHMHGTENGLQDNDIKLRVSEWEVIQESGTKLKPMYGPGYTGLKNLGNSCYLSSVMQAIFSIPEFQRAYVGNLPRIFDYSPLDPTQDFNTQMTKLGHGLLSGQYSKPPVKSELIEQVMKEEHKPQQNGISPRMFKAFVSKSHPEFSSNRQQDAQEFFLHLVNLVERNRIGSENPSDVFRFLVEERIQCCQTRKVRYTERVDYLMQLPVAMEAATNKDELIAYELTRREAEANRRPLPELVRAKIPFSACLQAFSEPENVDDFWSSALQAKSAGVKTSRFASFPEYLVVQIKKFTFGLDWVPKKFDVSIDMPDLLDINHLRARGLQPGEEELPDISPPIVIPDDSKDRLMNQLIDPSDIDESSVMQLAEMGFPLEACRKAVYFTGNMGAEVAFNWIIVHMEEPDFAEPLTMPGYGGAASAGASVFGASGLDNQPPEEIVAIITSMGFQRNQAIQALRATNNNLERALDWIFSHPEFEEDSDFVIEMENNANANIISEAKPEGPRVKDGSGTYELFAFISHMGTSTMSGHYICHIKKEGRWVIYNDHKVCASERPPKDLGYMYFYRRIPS
UniProt Q13107: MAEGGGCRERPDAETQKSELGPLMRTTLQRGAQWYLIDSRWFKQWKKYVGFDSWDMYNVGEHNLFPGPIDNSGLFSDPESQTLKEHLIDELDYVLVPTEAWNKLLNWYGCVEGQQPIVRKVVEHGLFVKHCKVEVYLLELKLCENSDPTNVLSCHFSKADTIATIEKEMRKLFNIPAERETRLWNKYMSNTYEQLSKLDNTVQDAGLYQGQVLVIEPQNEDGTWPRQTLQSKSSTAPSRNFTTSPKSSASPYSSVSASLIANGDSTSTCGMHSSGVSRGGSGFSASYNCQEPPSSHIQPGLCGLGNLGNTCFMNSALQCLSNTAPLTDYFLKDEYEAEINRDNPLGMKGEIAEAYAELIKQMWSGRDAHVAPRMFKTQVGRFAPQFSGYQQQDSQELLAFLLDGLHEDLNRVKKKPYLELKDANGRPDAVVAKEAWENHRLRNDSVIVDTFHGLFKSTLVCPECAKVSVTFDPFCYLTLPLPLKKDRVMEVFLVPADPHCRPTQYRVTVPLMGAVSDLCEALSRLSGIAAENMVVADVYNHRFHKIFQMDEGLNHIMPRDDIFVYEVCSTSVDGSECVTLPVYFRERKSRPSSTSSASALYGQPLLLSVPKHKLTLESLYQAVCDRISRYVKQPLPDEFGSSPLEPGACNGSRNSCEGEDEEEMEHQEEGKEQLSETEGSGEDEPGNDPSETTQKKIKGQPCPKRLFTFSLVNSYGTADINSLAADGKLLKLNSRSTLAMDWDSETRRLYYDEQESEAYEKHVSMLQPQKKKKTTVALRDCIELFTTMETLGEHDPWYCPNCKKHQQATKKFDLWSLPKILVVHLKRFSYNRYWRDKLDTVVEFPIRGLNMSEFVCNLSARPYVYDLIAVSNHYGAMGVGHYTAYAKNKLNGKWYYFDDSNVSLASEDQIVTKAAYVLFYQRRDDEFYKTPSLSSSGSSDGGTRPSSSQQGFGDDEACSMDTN
UniProt Q9BZM5, whole entry, looked up: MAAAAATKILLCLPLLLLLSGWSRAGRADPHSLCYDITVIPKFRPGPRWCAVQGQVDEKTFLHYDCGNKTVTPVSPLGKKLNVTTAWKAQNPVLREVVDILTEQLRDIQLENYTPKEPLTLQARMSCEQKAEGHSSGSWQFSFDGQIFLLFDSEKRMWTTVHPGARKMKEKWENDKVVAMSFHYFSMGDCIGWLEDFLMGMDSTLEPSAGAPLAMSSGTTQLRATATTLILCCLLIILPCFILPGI
UniProt Q8NBZ7: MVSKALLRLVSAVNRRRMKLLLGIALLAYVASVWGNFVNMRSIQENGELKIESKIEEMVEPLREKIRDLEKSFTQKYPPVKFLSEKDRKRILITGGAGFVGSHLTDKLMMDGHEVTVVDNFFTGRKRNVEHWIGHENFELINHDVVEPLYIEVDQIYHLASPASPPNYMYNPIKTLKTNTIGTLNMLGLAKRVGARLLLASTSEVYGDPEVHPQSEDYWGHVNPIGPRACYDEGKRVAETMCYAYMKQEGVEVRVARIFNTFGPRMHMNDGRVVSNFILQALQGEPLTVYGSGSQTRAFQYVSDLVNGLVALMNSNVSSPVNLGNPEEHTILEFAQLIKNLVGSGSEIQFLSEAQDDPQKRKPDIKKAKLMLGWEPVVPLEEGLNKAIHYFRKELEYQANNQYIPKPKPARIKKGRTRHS
UniProt Q9NZ43: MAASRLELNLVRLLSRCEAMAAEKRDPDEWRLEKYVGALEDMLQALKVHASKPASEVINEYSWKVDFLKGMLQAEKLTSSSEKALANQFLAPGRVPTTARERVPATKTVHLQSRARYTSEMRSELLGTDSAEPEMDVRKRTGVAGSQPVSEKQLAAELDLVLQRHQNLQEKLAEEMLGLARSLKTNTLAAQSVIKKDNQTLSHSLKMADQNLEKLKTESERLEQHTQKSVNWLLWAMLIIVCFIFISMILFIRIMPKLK
UniProt Q8NFA0: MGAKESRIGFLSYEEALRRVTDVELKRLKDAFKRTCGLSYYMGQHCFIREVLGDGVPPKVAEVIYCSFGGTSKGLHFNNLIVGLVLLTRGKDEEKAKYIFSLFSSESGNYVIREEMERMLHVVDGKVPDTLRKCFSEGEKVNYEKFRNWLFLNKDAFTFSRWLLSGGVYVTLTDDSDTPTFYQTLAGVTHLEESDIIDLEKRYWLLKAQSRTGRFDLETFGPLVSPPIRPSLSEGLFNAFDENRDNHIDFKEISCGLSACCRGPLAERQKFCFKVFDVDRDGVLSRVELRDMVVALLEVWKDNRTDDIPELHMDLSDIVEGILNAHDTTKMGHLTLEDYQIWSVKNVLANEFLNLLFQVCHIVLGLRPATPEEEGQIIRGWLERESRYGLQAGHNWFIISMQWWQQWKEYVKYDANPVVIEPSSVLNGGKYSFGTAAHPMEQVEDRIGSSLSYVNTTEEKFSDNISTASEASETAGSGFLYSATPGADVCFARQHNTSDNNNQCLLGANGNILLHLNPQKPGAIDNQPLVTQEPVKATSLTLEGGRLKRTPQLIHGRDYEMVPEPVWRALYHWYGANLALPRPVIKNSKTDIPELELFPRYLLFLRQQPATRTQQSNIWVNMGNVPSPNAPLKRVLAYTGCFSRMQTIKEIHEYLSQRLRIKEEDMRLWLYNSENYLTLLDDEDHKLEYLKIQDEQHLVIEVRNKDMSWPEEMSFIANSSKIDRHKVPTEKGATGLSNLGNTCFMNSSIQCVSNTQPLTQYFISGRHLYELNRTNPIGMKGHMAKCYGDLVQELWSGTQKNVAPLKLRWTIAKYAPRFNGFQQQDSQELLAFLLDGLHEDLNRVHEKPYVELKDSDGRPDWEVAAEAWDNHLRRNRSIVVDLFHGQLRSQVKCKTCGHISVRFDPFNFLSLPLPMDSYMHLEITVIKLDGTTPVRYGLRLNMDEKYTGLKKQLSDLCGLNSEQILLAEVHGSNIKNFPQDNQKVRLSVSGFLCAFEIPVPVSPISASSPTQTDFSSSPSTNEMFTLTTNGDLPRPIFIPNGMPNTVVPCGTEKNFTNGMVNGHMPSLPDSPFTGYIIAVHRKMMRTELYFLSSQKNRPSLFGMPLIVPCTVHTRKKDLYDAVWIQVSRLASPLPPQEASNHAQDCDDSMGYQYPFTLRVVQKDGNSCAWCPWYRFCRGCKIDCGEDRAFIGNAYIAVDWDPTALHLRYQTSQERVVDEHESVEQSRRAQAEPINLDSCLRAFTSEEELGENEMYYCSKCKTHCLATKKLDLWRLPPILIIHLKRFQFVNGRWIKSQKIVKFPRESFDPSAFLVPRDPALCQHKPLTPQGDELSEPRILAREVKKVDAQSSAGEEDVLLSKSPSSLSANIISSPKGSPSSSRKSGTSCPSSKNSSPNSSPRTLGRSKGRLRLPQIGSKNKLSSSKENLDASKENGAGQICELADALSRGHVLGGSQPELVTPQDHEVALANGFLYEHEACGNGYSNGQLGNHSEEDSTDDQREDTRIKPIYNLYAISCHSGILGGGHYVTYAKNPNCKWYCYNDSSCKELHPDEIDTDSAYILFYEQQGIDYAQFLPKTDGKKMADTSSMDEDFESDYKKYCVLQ
UniProt O14957: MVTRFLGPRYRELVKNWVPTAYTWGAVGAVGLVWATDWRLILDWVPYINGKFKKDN
UniProt Q9NYH9: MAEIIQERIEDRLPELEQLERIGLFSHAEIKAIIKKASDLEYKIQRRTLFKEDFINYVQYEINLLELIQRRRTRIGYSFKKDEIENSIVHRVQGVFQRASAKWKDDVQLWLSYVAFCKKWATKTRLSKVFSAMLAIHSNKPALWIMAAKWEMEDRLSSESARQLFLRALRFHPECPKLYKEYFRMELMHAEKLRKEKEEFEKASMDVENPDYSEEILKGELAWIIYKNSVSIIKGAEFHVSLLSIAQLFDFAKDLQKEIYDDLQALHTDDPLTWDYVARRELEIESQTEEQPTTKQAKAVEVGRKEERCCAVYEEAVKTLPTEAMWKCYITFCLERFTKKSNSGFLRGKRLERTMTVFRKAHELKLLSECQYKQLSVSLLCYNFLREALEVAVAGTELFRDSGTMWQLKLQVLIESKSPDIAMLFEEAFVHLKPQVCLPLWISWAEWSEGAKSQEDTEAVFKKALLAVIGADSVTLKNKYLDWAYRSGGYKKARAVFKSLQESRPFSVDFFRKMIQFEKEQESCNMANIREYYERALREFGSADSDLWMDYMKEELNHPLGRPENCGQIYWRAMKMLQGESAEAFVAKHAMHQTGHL
UniProt P14927: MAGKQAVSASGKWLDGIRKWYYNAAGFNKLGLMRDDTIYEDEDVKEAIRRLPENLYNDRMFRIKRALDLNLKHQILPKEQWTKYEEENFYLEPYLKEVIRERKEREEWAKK
UniProt P45974: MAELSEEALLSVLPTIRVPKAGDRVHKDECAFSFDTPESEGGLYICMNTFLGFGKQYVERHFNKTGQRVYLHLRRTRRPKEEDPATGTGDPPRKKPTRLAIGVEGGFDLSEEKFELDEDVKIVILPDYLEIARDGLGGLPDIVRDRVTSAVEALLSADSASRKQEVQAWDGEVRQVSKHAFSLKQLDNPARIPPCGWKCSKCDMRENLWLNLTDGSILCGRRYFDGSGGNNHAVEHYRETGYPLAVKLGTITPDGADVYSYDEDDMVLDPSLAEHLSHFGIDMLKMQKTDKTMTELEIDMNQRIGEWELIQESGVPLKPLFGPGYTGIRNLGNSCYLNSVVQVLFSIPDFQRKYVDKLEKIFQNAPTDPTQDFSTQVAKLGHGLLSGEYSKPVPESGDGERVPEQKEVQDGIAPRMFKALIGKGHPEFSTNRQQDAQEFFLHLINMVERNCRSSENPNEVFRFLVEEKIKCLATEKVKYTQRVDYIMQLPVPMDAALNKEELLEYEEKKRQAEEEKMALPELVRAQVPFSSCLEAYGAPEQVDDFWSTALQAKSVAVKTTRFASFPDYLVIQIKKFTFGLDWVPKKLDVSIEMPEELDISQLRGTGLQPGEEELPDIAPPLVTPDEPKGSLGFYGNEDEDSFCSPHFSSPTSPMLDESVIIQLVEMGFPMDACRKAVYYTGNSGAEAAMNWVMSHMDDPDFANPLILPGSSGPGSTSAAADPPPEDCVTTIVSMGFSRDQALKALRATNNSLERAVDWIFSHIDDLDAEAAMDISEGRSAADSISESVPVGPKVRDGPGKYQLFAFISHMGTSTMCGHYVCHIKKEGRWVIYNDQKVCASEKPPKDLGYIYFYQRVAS
UniProt Q9BZI7: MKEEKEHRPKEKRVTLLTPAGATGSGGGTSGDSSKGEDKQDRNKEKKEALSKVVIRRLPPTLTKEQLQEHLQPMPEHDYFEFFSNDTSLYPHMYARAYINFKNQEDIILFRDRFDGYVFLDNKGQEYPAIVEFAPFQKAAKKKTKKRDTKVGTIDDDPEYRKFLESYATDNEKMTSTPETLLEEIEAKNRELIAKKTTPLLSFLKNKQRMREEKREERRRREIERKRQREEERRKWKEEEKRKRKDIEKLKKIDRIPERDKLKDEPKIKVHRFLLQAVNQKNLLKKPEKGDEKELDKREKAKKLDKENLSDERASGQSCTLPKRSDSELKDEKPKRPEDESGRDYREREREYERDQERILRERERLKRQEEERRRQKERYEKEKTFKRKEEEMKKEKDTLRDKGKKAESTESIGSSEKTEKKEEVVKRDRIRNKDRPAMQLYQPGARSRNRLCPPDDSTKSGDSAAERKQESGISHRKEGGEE
UniProt P63027, whole entry, looked up: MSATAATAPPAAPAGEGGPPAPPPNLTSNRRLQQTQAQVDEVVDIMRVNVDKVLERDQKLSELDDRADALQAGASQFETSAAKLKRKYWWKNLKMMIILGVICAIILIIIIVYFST

Some of the results follow.

Compound in one test: Cc1cc(Nc2cc(CN3CCOCC3)c3nc(C)c(Cc4ccc(Cl)cc4F)n3n2)n[nH]1 [gandotinib]
The experiment in a line: log2 fold change, soluble protein after heating vs DMSO (PISA); higher = thermal stabilisation; K562 lysate, 10 uM; active = over 0.2 and 3.5 SD of the protein, either way, in both replicates (recomputed). The method, boiled down:
(§1)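 Pellets of K562 cells were dounce-homogenised in PBS pH 7.4 with 1 mM MgCl2, and the crude extract was held at 1 mg/mL protein for a 30 min treatment with 10 μM compound. Aliquots were heated for 3 min over 48°C-58°C and pooled before NP-40 was added to 0.5% at 4°C. The supernatant from 21,000xg for 90 min was quantified by TMTpro 16plex LC-MS/MS with channel sums equalised. Values are reported from duplicates as log-two fold change in thermal stability relative to solvent controls.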
Turning to USP13 (UniProt Q92995), the log2 fold change is inactive: 0.029.

For UFL1 (UniProt O94874), the log2 fold change is inactive: -0.139.

Regarding USP4 (UniProt Q13107), the log2 fold change was inactive: -0.07.

Consider VARS (UniProt P26640), for which the log2 fold change is inactive: -0.092.

As to ULBP2 (UniProt Q9BZM5), the log2 fold change is inactive: 0.039.

For UXS1 isoform 2 (UniProt Q8NBZ7), the log2 fold change is inactive: 0.005.

On to USE1 (UniProt Q9NZ43), for which the log2 fold change is inactive: -0.103.

USP48 isoform 8 (UniProt Q86UV5): the log2 fold change was inactive: -0.044.

Compound in a further test: Cc1cc(Nc2cc(N3CCN(C)CC3)nc(Sc3ccc(NC(=O)C4CC4)cc3)n2)n[nH]1 [tozasertib]
Described as above. The method, boiled down: as §1
Turning to UGDH (UniProt O60701), the log2 fold change was inactive: -0.073.

On to USP32 (UniProt Q8NFA0), for which the log2 fold change is inactive: -0.019.

On to VIRMA (UniProt Q69YN4), for which the log2 fold change was inactive: 0.019.

For UFD1 isoform 1 (UniProt Q92890), the log2 fold change was inactive: 0.028.

In the case of VANGL1 (UniProt Q8TAA9), the log2 fold change was inactive: 0.016.

As for VARS2, A0A0G2JL52, the log2 fold change was inactive: 0.027.

With UFC1 (UniProt Q9Y3C8), the log2 fold change was inactive: -0.008.

As for UQCR11 (UniProt O14957), the log2 fold change is inactive: -0.02.

On to UIMC1 (UniProt Q96RL1), for which the log2 fold change is inactive: -0.018.

Regarding UTP6 (UniProt Q9NYH9), the log2 fold change was inactive: -0.002.

Regarding UQCRB (UniProt P14927), the log2 fold change was inactive: 0.038.

For USP5 isoform 2 (UniProt P45974), the log2 fold change is inactive: 0.018.

As for UGGT2 (UniProt Q9NYU1), the log2 fold change was inactive: -0.04.

Consider UQCRH (UniProt P07919), for which the log2 fold change was inactive: 0.

VCP (UniProt P55072): the log2 fold change was inactive: -0.014.

On to UHRF1BP1 (UniProt Q6BDS2), for which the log2 fold change was inactive: 0.018.

In the case of UNC5B (UniProt Q8IZJ1), the log2 fold change is inactive: 0.053.

Take VCX3B (UniProt Q9H321): the log2 fold change is inactive: 0.044.

Regarding UHRF1BP1L (UniProt A0JNW5), the log2 fold change is inactive: 0.017.

With UNC45A (UniProt Q9H3U1), the log2 fold change was inactive: 0.

As to UPF3B (UniProt Q9BZI7), the log2 fold change was inactive: 0.031.

As to UGGT1 (UniProt Q9NYU2), the log2 fold change was inactive: -0.008.

As to VAMP2 (UniProt P63027), the log2 fold change was inactive: 0.074.

Regarding USP1 (UniProt O94782), the log2 fold change is inactive: 0.01.

Regarding USP13 (UniProt Q92995), the log2 fold change is inactive: -0.031.

In the case of UFL1 (UniProt O94874), the log2 fold change is inactive: 0.016.

Turning to USP4 (UniProt Q13107), the log2 fold change was inactive: -0.042.

VARS (UniProt P26640): the log2 fold change was inactive: -0.021.

On to ULBP2 (UniProt Q9BZM5), for which the log2 fold change is inactive: 0.034.

Turning to UXS1 isoform 2 (UniProt Q8NBZ7), the log2 fold change was inactive: -0.043.

For the target USE1 (UniProt Q9NZ43), the log2 fold change was inactive: 0.011.

On to USP48 isoform 8 (UniProt Q86UV5), for which the log2 fold change was inactive: 0.008.
